Article PMC7303307

Tests used:
MBP-PPR756(41-756)-HIS [1] = test: EMSA; settings: 100 fmol RNA in 20 uL; 10x binding buffer: 100 mM HEPES pH 7.3, 200 mM KCl, 10 mM MgCl2, 10 mM DTT (1x: 10 mM HEPES, 20 mM KCl, 1 mM MgCl2, 1 mM DTT); 10 U RNasin; recombinant protein; protein details: N-terminal MBP, C-terminal 6xHis; label: 5' 6-FAM
MBP-PPR756(41-756)-HIS [2] = test: competition with a labelled probe; settings: 100 fmol RNA in 20 uL, 10x binding buffer: 100 mM HEPES pH 7.3, 200 mM KCl, 10 mM MgCl2, 10 mM DTT (1x: 10 mM HEPES, 20 mM KCl, 1 mM MgCl2, 1 mM DTT), 10 U RNasin, recombinant protein, protein details: N-terminal MBP, C-terminal 6xHis

“AAAACUAAUACCUAUUCUGUUUAGUACUUCAGGUG [probe C (nad5-1580, nad5-FAM)]”: no binding (MBP-PPR756(41-756)-HIS [1]).

“ACAGCUAUAAACAGUUUCUUGUUCCCAUUAACAA [ccmC probe (ccmC-FAM)]”: binds (MBP-PPR756(41-756)-HIS [1]).

“ACAGCUAUAAACAGUUUCUUGUUCCCAUUAACAA [unlabeled ccmC competitor]”: binds (MBP-PPR756(41-756)-HIS [2]; vs labeled ccmC probe).

“UAUGGCGGUAACUGUCGUUUUGGUGCCAUCUUUAU [atp6 probe (atp6-FAM)]”: binds (MBP-PPR756(41-756)-HIS [1]).

“UAUGGCGGUAACUGUCGUUUUGGUGCCAUCUUUAU [unlabeled atp6 competitor]”: binds (MBP-PPR756(41-756)-HIS [2]; vs labeled atp6 probe).

“UCCUGCUGCUCAUGGUGUUUUACGAUCAGUAUUCC [nad7 probe (nad7-FAM)]”: binds (MBP-PPR756(41-756)-HIS [1]).

“UCCUGCUGCUCAUGGUGUUUUACGAUCAGUAUUCC [unlabeled nad7 competitor]”: binds (MBP-PPR756(41-756)-HIS [2]; vs labeled nad7 probe).

The exact form of at least one protein or probe is not confirmed. For some of these results: A negative result means that nothing was seen under these conditions.
